Test results taken from paper PMC8603942.
No constants are given. Whether binding was seen depends on the method and setting. Binding seen in cells or lysates may run through a third protein.

Amino acid sequences for entries named in this document (tags omitted).
UniProt Q9QZL0: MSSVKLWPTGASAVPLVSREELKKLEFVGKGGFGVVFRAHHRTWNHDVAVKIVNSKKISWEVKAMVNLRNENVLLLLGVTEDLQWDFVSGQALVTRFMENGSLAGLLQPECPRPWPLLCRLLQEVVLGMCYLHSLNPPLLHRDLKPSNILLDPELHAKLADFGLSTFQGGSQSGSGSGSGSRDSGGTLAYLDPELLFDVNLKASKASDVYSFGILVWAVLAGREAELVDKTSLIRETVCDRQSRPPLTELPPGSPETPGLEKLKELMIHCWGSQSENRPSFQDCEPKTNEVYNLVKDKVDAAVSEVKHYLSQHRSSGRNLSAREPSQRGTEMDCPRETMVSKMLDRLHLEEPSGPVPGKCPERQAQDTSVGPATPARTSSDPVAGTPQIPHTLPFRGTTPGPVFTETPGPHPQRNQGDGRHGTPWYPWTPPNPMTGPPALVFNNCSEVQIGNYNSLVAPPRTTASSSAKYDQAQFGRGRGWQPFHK

T1: ASC (mouse (endogenous in BMDMs)) (UniProt Q9EPB4)
T1 sequence: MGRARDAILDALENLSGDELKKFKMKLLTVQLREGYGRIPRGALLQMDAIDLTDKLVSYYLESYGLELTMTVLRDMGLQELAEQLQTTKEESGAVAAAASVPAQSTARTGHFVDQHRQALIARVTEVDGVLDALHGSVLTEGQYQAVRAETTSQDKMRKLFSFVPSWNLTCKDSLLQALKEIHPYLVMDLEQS


Molecular target: T1, ASC (mouse (endogenous in BMDMs))
Test: condition: only after poly(dA:dT) transfection instead of infection; co-IP; anti-ASC antibody with protein A/G agarose from lysates of WT BMDMs after poly(dA:dT) transfection instead of infection; 20 mM Tris-HCl pH 7.4, 100 mM NaCl, 30 mM KCl, 0.1% NP-40; immunoblot

Molecule	binding
RIPK3 (from UniProt Q9QZL0 1-486)	no binding
caspase-8 (protein, UniProt O89110 1-480) MDFQSCLYAIAEELGSEDLAALKFLCLDYIPHKKQETIEDAQKLFLRLREKGMLEEGNLSFLKELLFHISRWDLLVNFLDCNREEMVRELRDPDNAQISPYRVMLFKLSEEVSELELRSFKFLLNNEIPKCKLEDDLSLLEIFVEMEKRTMLAENNLETLKSICDQVNKSLLGKIEDYERSSTERRMSLEGREELPPSVLDEMSLKMAELCDSPREQDSESRTSDKVYQMKNKPRGYCLIINNHDFSKAREDITQLRKMKDRKGTDCDKEALSKTFKELHFEIVSYDDCTANEIHEILEGYQSADHKNKDCFICCILSHGDKGVVYGTDGKEASIYDLTSYFTGSKCPSLSGKPKIFFIQACQGSNFQKGVPDEAGFEQQNHTLEVDSSSHKNYIPDEADFLLGMATVKNCVSYRDPVNGTWYIQSLCQSLRERCPQGDDILSILTGVNYDVSNKDDRRNKGKQMPQPTFTLRKKLFFPP	no binding

Now from value to molecule:

binding	Molecule
no binding	Pyrin (protein, UniProt Q9JJ26 1-767) MAKTLGDHLLNTLEELLPYDFEKFKFKLQNTSLEKGHSKIPRGHMQMARPVKLASLLITYYGEEYAVRLTLQILRATNQRQLAEELRKATGTEHLIEENRVGGSVQSSVENKAKSVKVPDVPEGDGTQQNNDESDTLPSSQAEVGKGPQKKSLTKRKDQRGPESLDSQTKPWTRSTAPLYRRTQGTQSPGDKESTASAQLRRNVSSAGRLQGLYNNAPGRRESKKAEVYVYLPSGKKRPRSLEITTYSREGEPPNSEVLPTQEETRNGSLIRMRTATLNGRTTGALEKGTGIPEHSMVLDEKTFRNMSSKTSLIGEERCPTSWTENGNGSPETTESSGETAGSILSDPEVPLSLCEKPAKTPEDPASLGQAACEGRSQDKAVCPLCHTQEGDLRGDTCVQSSCSCSIAPGDPKASGRCSICFQCQGLLARKSCEAQSPQSLPQCPRHMKQVLLLFCEDHREPICLICRLSLEHQGHRVRPIEEAALEYKEQIREQLERLREMRGYVEEHRLQGDKKTDDFLKQTEIQKQKISCPLEKLYQLLEKQEQLFVTWLQELSQTISKVRETYYTRVSLLDEMIEELEAKQDQPEWDLMQDIGITLHRAKMMSASELLDTPPGVKEKLHLLYQKSKSVEKNMQCFSEMLSSEMAFSASDVAKWEGRQPSATQVQGLVPTVHLKCDGAHTQDCDVVFYPEREAGGSEPKDYLHPQPAQDTPELHEIHSRNNKRKFKSFLKWKPSFSRTDWRLRTCCYRDLDQAAAHPNLIFSMI
no binding	FADD (protein, UniProt Q61160 1-205) MDPFLVLLHSLSGSLSGNDLMELKFLCRERVSKRKLERVQSGLDLFTVLLEQNDLERGHTGLLRELLASLRRHDLLQRLDDFEAGTATAAPPGEADLQVAFDIVCDNVGRDWKRLARELKVSEAKMDGIEEKYPRSLSERVRESLKVWKNAEKKNASVAGLVKALRTCRLNLVADLVEEAQESVSKSENMSPVLRDSTVSSSETP
